Results from US20120269817A1.

Molecular target: lysozyme
Assay: ELISA

binding | Binder
no binding | TP-2G7 Fab (Fab, V domains shown) VH: QVQLVESGGGLVQPGGSLRLSCAASGFTFNSYAMSWVRQAPGKGLEWVSNISSNSSNTYYADSVKGRFTISRDNSKNTLYLQMNSLRAEDTAVYYCARKGGGEHGFFPSDIWGQGTLVTVSS VL: DIELTQPPSVSVAPGQTARISCSGDNLGTYYVHWYQQKPGQAPVLVIYGDNNRPSGIPERFSGSNSGNTATLTISGTQAEDEADYYCQTYDSNNESIVFGGGTKLTVLG
no binding | TP-2G9 Fab (Fab, V domains shown) VH: QVQLVESGGGLVQPGGSLRLSCAASGFTFNSYAMTWVRQAPGKGLEWVSAIKSDGSNTYYADSVKGRFTISRDNSKNTLYLQMNSLRAEDTAVYYCARNDSGWFDVWGQGTLVTVSS VL: DIALTQPASVSGSPGQSITISCTGTSSDLGGFNTVSWYQQHPGKAPKLMIYSVSSRPSGVSNRFSGSKSGNTASLTISGLQAEDEADYYCQSYDLNNLVFGGGTKLTVLG
no binding | TP-3C1 Fab (Fab, V domains shown) VH: QVQLVESGGGLVQPGGSLRLSCAASGFTFSSYSMHWVRQAPGKGLEWVSGISYSSSFTYYADSVKGRFTISRDNSKNTLYLQMNSLRAEDTAVYYCARALGGGVDYWGQGTLVTVSS VL: DIALTQPASVSGSPGQSITISCTGTSSDLGGFNTVSWYQQHPGKAPKLMIYSVSSRPSGVSNRFSGSKSGNTASLTISGLQAEDEADYYCQSYDLNNLVFGGGTKLTVLG
no binding | TP-2E5 Fab (Fab, V domains shown) VH: QVQLQQSGPGLVKPSQTLSLTCAISGDSVSSNSAAWSWIRQSPGRGLEWLGMIFYRSKWNNDYAVSVKSRITINPDTSKNQFSLQLNSVTPEDTAVYYCARVNANGYYAYVDLWGQGTLVTVSS VL: DIQMTQSPSSLSASVGDRVTITCRASQPIYNSLSWYQQKPGKAPKLLIYGVSNLQSGVPSRFSGSGSGTDFTLTISSLQPEDFAVYYCLQVDNLPITFGQGTKVEIKR
no binding | TP-2C7 Fab (Fab, V domains shown) VH: QVQLQQSGPGLVKPSQTLSLTCAISGDSVSSNSAAWGWIRQSPGRGLEWLGIIYYRSKWYNHYAVSVKSRITINPDTSKNQFSLQLNSVTPEDTAVYYCARSNWSGYFDYWGQGTLVTVSS VL: DIQMTQSPSSLSASVGDRVTITCRASQDIRNNLAWYQQKPGKAPKLLIYAASSLQSGVPSRFSGSGSGTDFTLTISSLQPEDFAVYYCQQRNGFPLTFGQGTKVEIKR
no binding | TP-2E3 Fab (Fab, V domains shown) VH: QVQLQQSGPGLVKPSQTLSLTCAISGDSVSSNSAAWGWIRQSPGRGLEWLGMIYYRSKWYNDYAVSVKSRITINPDTSKNQFSLQLNSVTPEDTAVYYCARVNQYTSSDYWGQGTLVTVSS VL: DIALTQPASVSGSPGQSITISCTGTSSDIGGYNYVSWYQQHPGKAPKLMIYGVNYRPSGVSNRFSGSKSGNTASLTISGLQAEDEADYYCSSADKFTMSIVFGGGTKLTVLG
no binding | TP-3C2 Fab (Fab, V domains shown) VH: QVQLQQSGPGLVKPSQTLSLTCAISGDSVSSSSAAWSWIRQSPGRGLEWLGMIYYRSKWYNHYAVSVKSRITINPDTSKNQFSLQLNSVTPEDTAVYYCARGGSGVMDVWGQGTLVTVSS VL: DIQMTQSPSSLSASVGDRVTITCRASQSITNYLNWYQQKPGKAPKLLIYDVSNLQSGVPSRFSGSGSGTDFTLTISSLQPEDFAVYYCQQYSGYPLTFGQGTKVEIKR
no binding | TP-2G6 Fab (Fab, V domains shown) VH: QVQLQQSGPGLVKPSQTLSLTCAISGDSVSSSSAAWSWIRQSPGRGLEWLGIIYYRSKWYNDYAVSVKSRITINPDTSKNQFSLQLNSVTPEDTAVYYCARHSMVGFDVWGQGTLVTVSS VL: DIVLTQSPATLSLSPGERATLSCRASQYVTSSYLAWYQQKPGQAPRLLIYGSSRATGVPARFSGSGSGTDFTLTISSLEPEDFATYYCQQYSSSPITFGQGTKVEIKR
no binding | TP-3A4 Fab (Fab, V domains shown) VH: QVQLVESGGGLVQPGGSLRLSCAASGFTFSSYWMHWVRQAPGKGLEWVSSISYDSSNTYYADSVKGRFTISRDNSKNTLYLQMNSLRAEDTAVYYCARYGGMDYWGQGTLVTVSS VL: DIELTQPPSVSVAPGQTARISCSGDNLRDKYASWYQQKPGQAPVLVIYSKSERPSGIPERFSGSNSGNTATLTISGTQAEDEADYYCSSYTLNPNLNYVFGGGTKLTVLG
no binding | TP-2G4 Fab (Fab, V domains shown) VH: QVQLVESGGGLVQPGGSLRLSCAASGFTFSSYAMTWVRQAPGKGLEWVSNISYSGSNTYYADSVKGRFTISRDNSKNTLYLQMNSLRAEDTAVYYCARVGYYYGFDYWGQGTLVTVSS VL: DIELTQPPSVSVAPGQTARISCSGDALRKHYVYWYQQKPGQAPVLVIYGDNNRPSGIPERFSGSNSGNTATLTISGTQAEDEADYYCQSYDKPYPILVFGGGTKLTVLG
no binding | TP-3B3 Fab (Fab, V domains shown) VH: QVQLVESGGGLVQPGGSLRLSCAASGFTFSSYGMHWVRQAPGKGLEWVSNISYMGSNTNYADSVKGRFTISRDNSKNTLYLQMNSLRAEDTAVYYCARGLFPGYFDYWGQGTLVTVSS VL: DIELTQPASVSVAPGQTARISCSGDNLRSKYAHWYQQKPGQAPVLVIYGDNNRPSGIPERFSGSNSGNTATLTISGTQAEDEADYYCSAYAMGSSPVFGGGTKLTVLG
no binding | TP-3A2 Fab (Fab, V domains shown) VH: QVQLVESGGGLVQPGGSLRLSCAASGFTFSNYYLSWVRQAPGKGLEWVSGISYNGSSTNYADSVKGRFTISRDNSKNTLYLQMNSLRAEDTAVYYCARMWRYSLGADSWGQGTLVTVSS VL: DIELTQPPSVSVAPGQTARISCSGDNIGSRYAYWYQQKPGQAPVVVIYDDSDRPSGIPERFSGSNSGNTATLTISGTQAEDEADYYCAAYTFYARTVFGGGTKLTVLG
no binding | TP-2G2 Fab (Fab, V domains shown) VH: QVQLVESGGGLVQPGGSLRLSCAASGFTFSSYAMNWVRQAPGKGLEWVSAILSDGSSTSYADSVKGRFTISRDNSKNTLYLQMNSLRAEDTAVYYCARYPDWGWYTDVWGQGTLVTVSS VL: DIELTQPPSVSVAPGQTARISCSGDNIRKFYVHWYQQKPGQAPVLVIYGTNKRPSGIPERFSGSNSGNTATLTISGTQAEDEADYYCQSYDSKFNTVFGGGTKLTVLG
no binding | TP-3A3 Fab (Fab, V domains shown) VH: QVQLVESGGGLVQPGGSLRLSCAASGFTFNNNAISWVRQAPGKGLEWVSAINSSSSSTSYADSVKGRFTISRDNSKNTLYLQMNSLRAEDTAVYYCARGHHRGHSWASFIDYWGQGTLVTVSS VL: DIELTQPPSVSVAPGQTARISCSGDNIGSKYVHWYQQKPGQAPVVVIYEDSDRPSGIPERFSGSNSGNTATLTISGTQAEDEADYYCQSWDKSEGYVFGGGTKLTVLG
no binding | TP-3B4 Fab (Fab, V domains shown) VH: QVQLQQSGPGLVKPSQTLSLTCAISGDSVSSNGAAWGWIRQSPGRGLEWLGHIYYRSKWYNSYAVSVKSRITINPDTSKNQFSLQLNSVTPEDTAVYYCARWGGIHDGDIYFDYWGQGTLVTVSS VL: DIQMTQSPSSLSASVGDRVTITCRASQNISNYLNWYQQKPGKAPKLLIYGTSSLQSGVPSRFSGSGSGTDFTLTISSLQPEDFAVYYCQQYGNNPTTFGQGTKVEIKR

Results are given in words; binding and its absence hold for the method and conditions named.
